From publication PMC11455670
No constants are given. Whether binding was seen depends on the method and setting. Binding seen in cells or lysates may run through a third protein. Some results given as binding are weak or reduced against the parent protein; the word gives no strength.

Sequences of proteins named here, by UniProt entry; tags and fusion partners are left off. Residues count along the entry.
UniProt Q5JRA6, residues 23-1907: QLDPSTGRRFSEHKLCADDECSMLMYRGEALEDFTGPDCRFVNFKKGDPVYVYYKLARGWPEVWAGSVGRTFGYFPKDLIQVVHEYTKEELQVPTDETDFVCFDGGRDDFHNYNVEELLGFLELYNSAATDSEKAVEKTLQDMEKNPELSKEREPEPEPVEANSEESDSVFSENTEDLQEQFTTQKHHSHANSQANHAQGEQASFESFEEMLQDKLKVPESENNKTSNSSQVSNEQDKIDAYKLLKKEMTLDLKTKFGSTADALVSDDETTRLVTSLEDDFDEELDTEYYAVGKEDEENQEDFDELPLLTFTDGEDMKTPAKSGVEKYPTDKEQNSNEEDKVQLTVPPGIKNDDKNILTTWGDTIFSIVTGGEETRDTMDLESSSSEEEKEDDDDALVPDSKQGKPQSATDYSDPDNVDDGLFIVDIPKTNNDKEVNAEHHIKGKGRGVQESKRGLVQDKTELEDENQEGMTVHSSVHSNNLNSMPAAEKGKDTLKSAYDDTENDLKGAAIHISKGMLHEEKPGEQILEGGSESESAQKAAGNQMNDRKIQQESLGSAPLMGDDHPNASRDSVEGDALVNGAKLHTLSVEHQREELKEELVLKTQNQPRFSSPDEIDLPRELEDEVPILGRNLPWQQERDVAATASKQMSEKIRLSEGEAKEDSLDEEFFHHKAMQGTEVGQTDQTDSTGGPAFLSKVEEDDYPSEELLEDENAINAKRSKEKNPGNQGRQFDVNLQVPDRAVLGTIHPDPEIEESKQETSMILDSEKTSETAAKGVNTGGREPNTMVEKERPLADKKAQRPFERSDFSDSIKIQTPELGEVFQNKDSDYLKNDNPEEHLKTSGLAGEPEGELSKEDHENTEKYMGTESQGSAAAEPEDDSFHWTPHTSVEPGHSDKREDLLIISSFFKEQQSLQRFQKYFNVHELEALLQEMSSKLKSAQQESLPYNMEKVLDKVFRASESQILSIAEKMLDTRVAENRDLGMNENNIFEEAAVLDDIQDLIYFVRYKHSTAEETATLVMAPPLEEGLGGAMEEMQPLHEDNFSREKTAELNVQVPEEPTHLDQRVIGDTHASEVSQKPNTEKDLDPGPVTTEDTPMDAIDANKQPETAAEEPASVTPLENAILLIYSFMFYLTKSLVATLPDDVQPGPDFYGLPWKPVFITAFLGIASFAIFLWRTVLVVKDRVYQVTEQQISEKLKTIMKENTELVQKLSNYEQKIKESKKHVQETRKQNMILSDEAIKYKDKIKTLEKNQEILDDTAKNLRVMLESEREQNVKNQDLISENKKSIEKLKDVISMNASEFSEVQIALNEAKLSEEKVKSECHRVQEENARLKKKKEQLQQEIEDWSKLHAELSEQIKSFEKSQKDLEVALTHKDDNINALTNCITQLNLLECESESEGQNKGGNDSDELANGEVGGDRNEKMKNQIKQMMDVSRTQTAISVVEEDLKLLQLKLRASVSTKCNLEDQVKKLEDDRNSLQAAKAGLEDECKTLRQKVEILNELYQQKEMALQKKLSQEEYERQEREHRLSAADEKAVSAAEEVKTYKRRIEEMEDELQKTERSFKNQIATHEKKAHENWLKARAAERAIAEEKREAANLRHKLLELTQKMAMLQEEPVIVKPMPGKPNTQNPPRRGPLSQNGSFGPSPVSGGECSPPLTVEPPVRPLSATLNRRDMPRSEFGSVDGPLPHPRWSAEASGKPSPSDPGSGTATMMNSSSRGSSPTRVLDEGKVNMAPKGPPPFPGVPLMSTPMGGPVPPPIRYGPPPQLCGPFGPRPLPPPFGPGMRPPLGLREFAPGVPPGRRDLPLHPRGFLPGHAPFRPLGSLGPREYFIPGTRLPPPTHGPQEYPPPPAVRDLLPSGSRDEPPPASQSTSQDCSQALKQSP

What was measured:
[1] = molecular target: Melanoma inhibition active protein 3 (MIA3) (human (in human hepatoma cell lines; the line used is not named)) (UniProt Q5JRA6); test: pull-down; named only in the legend of Fig. 6G ('COIP and pull down experiments'); no method given
[2] = molecular target: Melanoma inhibition active protein 3 (MIA3) (human (in human hepatoma cell lines; the line used is not named)) (UniProt Q5JRA6); test: co-IP; cells lysed in RIPA buffer at 4 °C, pre-cleared with immunoglobulin beads; anti-IgG, anti-MIA3 or anti-CHAC1 antibody overnight at 4 °C, protein A/G beads 4 h, Western blot; cell line not stated

- binding [1]: binds
- binding [2]: binds
B1: Glutathione-specific γ-glutamyl cyclotransferase 1 (CHAC1) (protein, UniProt Q9BUX1 1-222)
chain: MKQESAAPNTPPTSQSPTPSAQFPRNDGDPQALWIFGYGSLVWRPDFAYSDSRVGFVRGYSRRFWQGDTFHRGSDKMPGRVVTLLEDHEGCTWGVAYQVQGEQVSKALKYLNVREAVLGGYDTKEVTFYPQDAPDQPLKALAYVATPQNPGYLGPAPEEAIATQILACRGFSGHNLEYLLRLADFMQLCGPQAQDEHLAAIVDAVGTMLPCFCPTEQALALV
